{"source": "the supplement of paper PMC7024190", "note": "Structures can show the parent of a compound that is named as a salt. This is one part of the list. This data set is noisy: repeats of one test often differ as much as different tests do.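 Human embryonic kidney cells were transiently transfected with a plasmid bearing a Renilla luciferase gene under the HSV-TK promoter. This first-round screen tests roughly ten thousand compounds for ones that increase reporter output.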"}
{"test_system": "HEK 293FT", "assay": "log relative Renilla luciferase luminescence (reporter expression vs reference, reference not stated) (log (base not stated)); higher = higher recombinant reporter expression", "details": "10 µM; time after transfection 48 h"}
{"molecule": "Nc1cc(N2CCCCC2)nc(N)[n+]1[O-]", "note": "[Minoxidil]", "log": -0.0407}
{"molecule": "O=C(O)c1ccccc1OP(=O)(O)O", "note": "[Fosfosal]", "log": -0.0916}
{"molecule": "C/C=C(/C(=C/C)c1ccc(O)cc1)c1ccc(O)cc1", "note": "[Dienestrol]", "log": -0.302}
{"molecule": "Cc1ncc([N+](=O)[O-])n1CC(C)O", "note": "(stereo not drawn) [Secnidazole]", "log": -0.377}
{"molecule": "CC(=O)O[C@H]1C(=O)[C@@]2(C)[C@H]([C@H](OC(=O)c3ccccc3)[C@]3(O)C[C@H](OC(=O)[C@H](O)[C@@H](NC(=O)c4ccccc4)c4ccccc4)C(C)=C1C3(C)C)[C@]1(OC(C)=O)CO[C@@H]1C[C@@H]2O", "note": "[Paclitaxel]", "log": 0.26}
{"molecule": "CCCN(CCC)CCc1cccc2c1CC(=O)N2", "note": "[Ropinirole HCl]", "log": -0.0898}
{"molecule": "Cc1nc2ccccn2c(=O)c1CCN1CCC(C(=O)c2ccc(F)cc2)CC1", "note": "[Pirenperone]", "log": 0.00934}
{"molecule": "O=C(CCNNC(=O)c1ccncc1)NCc1ccccc1", "note": "[Nialamide]", "log": 0.157}
{"molecule": "N/C(=N\\C(=O)c1nc(Cl)c(N)nc1N)NCc1ccccc1", "note": "[Benzamil hydrochloride]", "log": 0.0949}
{"molecule": "NC(=O)c1cnccn1", "note": "[Pyrazinamide]", "log": 0.0695}
{"molecule": "CC[C@@H]1C(=O)OC[C@@H]1Cc1cncn1C", "note": "[Pilocarpine nitrate]", "log": 0.104}
{"molecule": "CC(C)NC[C@@H](O)COc1ccc(CC(N)=O)cc1", "note": "[(R)-(+)-Atenolol]", "log": -0.117}
{"molecule": "NS(=O)(=O)c1cc2c(cc1C(F)(F)F)NCNS2(=O)=O", "note": "[Hydroflumethiazide]", "log": 0.0878}
{"molecule": "CS(=O)(=O)OCCCCOS(C)(=O)=O", "note": "[Busulfan]", "log": -0.0188}
{"molecule": "Cc1c(NC(=O)c2cccnc2)c(=O)n(-c2ccccc2)n1C", "note": "[Nifenazone]", "log": 0.149}
{"molecule": "COc1cccc2c1C(=O)c1c(O)c3c(c(O)c1C2=O)C[C@@](O)(C(C)=O)C[C@@H]3O[C@H]1C[C@H](N)[C@H](O)[C@H](C)O1", "note": "[Daunorubicin hydrochloride]", "log": -0.0312}
{"molecule": "C=CC1=C(C(=O)O)N2C(=O)[C@@H](NC(=O)/C(=N\\O)c3csc(N)n3)[C@H]2SC1", "note": "[Cefdinir]", "log": 0.171}
{"molecule": "Cc1cn([C@H]2C=C[C@@H](CO)O2)c(=O)[nH]c1=O", "note": "[Stavudine]", "log": -0.015}
{"molecule": "CC(=O)NS(=O)(=O)c1ccc(N)cc1", "note": "[Sulfacetamide sodic hydrate]", "log": 0.0484}
{"molecule": "CCN(CC)CC(=O)Nc1c(C)cccc1C", "note": "[Lidocaïne hydrochloride]", "log": 0.0695}
{"molecule": "CC(=O)OCC(=O)[C@@]12OC(C)(C)O[C@@H]1C[C@H]1[C@@H]3C[C@H](F)C4=CC(=O)C=C[C@]4(C)[C@@]3(F)[C@@H](O)C[C@@]12C", "note": "[Fluocinonide]", "log": 0.00816}
{"molecule": "c1ccc2c(CC3=NCCN3)cccc2c1", "note": "[Naphazoline hydrochloride]", "log": 0.00934}
{"molecule": "CO[C@@H]1[C@@H](O[C@@H]2O[C@H](C)[C@@H](O[C@H]3C[C@@](C)(O)[C@@H](OC(=O)CC(C)C)[C@H](C)O3)[C@H](N(C)C)[C@H]2O)[C@@H](CC=O)C[C@@H](C)[C@@H](O)/C=C/C=C/C[C@@H](C)OC(=O)C[C@H]1OC(C)=O", "note": "[Josamycin]", "log": 0.0822}
{"molecule": "CC(=O)CC(c1ccccc1)c1c(O)c2ccccc2oc1=O", "note": "(stereo not drawn) [Warfarin]", "log": -0.185}
{"molecule": "OCCN(CCO)c1nc(N2CCCCC2)c2nc(N(CCO)CCO)nc(N3CCCCC3)c2n1", "note": "[Dipyridamole]", "log": -0.0818}
{"molecule": "O=C(O)c1ccccc1C(=O)Nc1ccc(S(=O)(=O)Nc2nccs2)cc1", "note": "[Phthalylsulfathiazole]", "log": 0.0486}
{"molecule": "CN(c1nccc(=O)[nH]1)C1CCN(c2nc3ccccc3n2Cc2ccc(F)cc2)CC1", "note": "[Mizolastine]", "log": -0.0838}
{"molecule": "CN1CCN(C(c2ccccc2)c2ccccc2)CC1", "note": "[Cyclizine hydrochloride]", "log": 0.0967}
{"molecule": "N[C@@H](Cc1cc(I)c(Oc2ccc(O)c(I)c2)c(I)c1)C(=O)O", "note": "[Liothyronine]", "log": 0.00849}
{"molecule": "CN1CCC(=C2c3ccccc3Sc3ccccc32)CC1", "note": "[Pimethixene maleate]", "log": 0.181}
{"molecule": "C#C[C@]1(O)CC[C@H]2[C@@H]3CCC4=CCCC[C@@H]4[C@H]3CC[C@@]21C", "note": "[Lynestrenol]", "log": -0.614}
{"molecule": "C[C@H](CCC(=O)O)[C@H]1CC[C@H]2[C@@H]3[C@@H](O)C[C@@H]4C[C@H](O)CC[C@]4(C)[C@H]3CC[C@]12C", "note": "[Urosiol]", "log": 0.00719}
{"molecule": "O=C(CCCN1CCN(c2ccccn2)CC1)c1ccc(F)cc1", "note": "[Azaperone]", "log": 0.115}
{"molecule": "NC[C@@H]1O[C@@H](O[C@H]2[C@H](O)[C@@H](O[C@H]3O[C@H](CO)[C@@H](O)[C@H](N)[C@H]3O)[C@H](N)C[C@@H]2N)[C@@H](O)[C@H](O)[C@H]1O", "note": "[Kanamycin A sulfate]", "log": -0.124}
{"molecule": "CC1CC(OC(=O)c2ccccc2O)CC(C)(C)C1", "note": "(stereo not drawn) [Homosalate]", "log": 0.157}
{"molecule": "COC(=O)C1=C(C#N)NC(C)=C(C(=O)OC(C)C)C1c1cccc([N+](=O)[O-])c1", "note": "(stereo not drawn) [Nilvadipine]", "log": 0.0914}
{"molecule": "CN1CCN(C2=Nc3ccccc3Oc3ccc(Cl)cc32)CC1", "note": "[Loxapine succinate]", "log": 0.149}
{"molecule": "N=C(NCCCCCCNC(=N)NC(=N)Nc1ccc(Cl)cc1)NC(=N)Nc1ccc(Cl)cc1", "note": "[Chlorhexidine]", "log": 0.125}
